Laboratory results taken from PubChem BioAssay AID540276 (National Center for Advancing Translational Sciences (NCATS), 2011).
“And” between values parts separate entries of the source, which are not always exact repeats. Identical values can stand only once. In all, about 300,000 compounds went through this assay and about 5,400 (1.8%) were called active. This list was built around the results that the source calls inconclusive (neither active nor inactive); the mix of calls is not that of the screen. The call rests on the fitted dose curve; tested in HEK293 cells. Where the call is inconclusive, the potency comes from a doubtful curve fit.

Experiment: qHTS for inhibitors of binding or entry into cells for Marburg Virus
Conditions: Marburg virus pseudotyped entry inhibition, cell reporter; activity change, negative = inhibition: at 37.8 µM (top of the series) unless noted
On the % scale 0 is the no-effect control and ±100 the full control effect; potency means the concentration at half of the fitted maximal effect.

Row | SMILES | activity change, negative = inhibition | Potency
1 | O=C(c1cn(-c2ccccc2)nc1-c1cccs1)N1CCOCC1 | inactive: 1.78% | 
2 | Cc1ccc2nc(-c3ccc(NC(=O)CN4CCN(C(=O)c5ccco5)CC4)cc3)sc2c1 | inactive: -15.7% | 
3 | CCOC(=O)COc1c(C(=O)OC)sc2ncccc12 | inactive: -7.23% | 
4 | O=C(NNC(=S)NC(=O)c1ccccc1)c1cccc([N+](=O)[O-])c1 | inactive: -15.7% | 
5 | COc1ccc(NC(=O)C2CCN(c3cnccn3)CC2)cc1Cl |  | inactive and inconclusive: 31.6 µM [inhibitor, single point]
6 | Cn1c(=O)c(=O)n(C)c2cc([N+](=O)[O-])c([N+](=O)[O-])cc21 |  | inconclusive: 35.5 µM [inhibitor, single point]
7 | CCCCCCn1c(N2CCN(c3cccc(Cl)c3)CC2)nc2c1c(=O)[nH]c(=O)n2C |  | inconclusive: 15.8 µM [inhibitor, single point]
8 | O=C(Nc1nnc(-c2ccc(Cl)cc2)o1)c1ccc(N2C(=O)CCC2=O)cc1 |  | inconclusive: 6.51 µM [inhibitor, single point]
9 | CC(=O)N1CCc2cc(NC(=O)c3ccc(C)cc3)ccc21 |  | inconclusive: 1.64 µM [activator, partial curve, poor fit]
10 | O=C(COC(=O)C1CC2C=CC1C2)Nc1ccccc1F (centres undefined) | inactive: 19.2% [at 46.1 µM] | 
11 | Cc1ccc(OCC(=O)Nc2ccc3c(c2)OCO3)c(C)c1 |  | inconclusive: 35.5 µM [inhibitor, single point]
12 | COc1ccccc1CN1CC(C(=O)NCc2cnn(C)c2)CCC1=O (centres undefined) |  | inconclusive: 5.01 µM [activator, partial curve]
13 | COCCCn1c(=O)c2sccc2n2c(CCCC(=O)NCc3ccc(F)cc3)nnc12 |  | inconclusive: 1.12 µM [inhibitor, full curve, poor fit]
14 | CCC(C)N(C(=O)COc1ccc(Br)cc1C=O)C1CCS(=O)(=O)C1 (centres undefined) | inactive: -8.33% | 
15 | CCc1ccc(-n2nc(CO)c(C(=O)NCc3ccccc3OC)n2)cc1 | inactive: 13.7% [at 46.1 µM] | 
16 | CCNC(=S)NC1CC2CCC(C1)N2Cc1ccccc1 (centres undefined) |  | active: 0.92 µM
17 | CCN1CCN(c2cc(C)c3cc(NC(=O)CCC(=O)Nc4ccc(OC)cc4OC)ccc3n2)CC1 |  | inconclusive: 22.4 µM [inhibitor, single point]
18 | C=CCn1c(SCc2ccccc2Cl)nnc1-c1sc2nc(C)cc(C)c2c1N | inactive: 0% | 
19 | COCCNC(=S)N(CCc1c(C)[nH]c2ccc(OC)cc12)Cc1ccco1 |  | inconclusive: 10 µM [inhibitor, single point]
20 | CCOC(=O)c1cnc(S[C@@H]2CC(=O)N(c3cccc(OC)c3)C2=O)nc1N | inactive: 13.2% | 
21 | COc1ccc(-c2ccc(CCC(=O)O)n2-c2ccc(Cl)cc2C)cc1 |  | inconclusive: 35.5 µM [inhibitor, single point]
22 | O=C(CN1C(=O)c2ccccc2S1(=O)=O)Nc1ccccc1C(=O)NCc1ccco1 | inactive: 3.44% | 

Row | SMILES | activity change, negative = inhibition | Potency
23 | COC(=O)c1ccc(COc2ccccc2/C=N/O)o1 | inactive: -18.6% [at 46.1 µM] | 
24 | O=S(=O)(c1ccccc1)c1cnn2c(C(F)(F)F)cc(-c3ccc(F)cc3)nc12 |  | inconclusive: 0.82 µM [inhibitor, full curve, poor fit]
25 | CCOC(=O)c1cccc(NC(=O)CCc2ccccc2)c1 |  | inconclusive: 12.6 µM [inhibitor, partial curve, poor fit]
26 | CC(=O)O/N=C(\N)c1ccc(-c2csnn2)cc1 |  | inconclusive: 4.47 µM [activator, partial curve, poor fit]
27 | O=C(NCc1ccc2c(c1)CCO2)Nc1ccccc1 |  | inconclusive: 11.2 µM [inhibitor, single point]
28 | C=CCn1cccc(C(=O)Nc2cc(OC)c(OC)c(OC)c2)c1=O |  | inconclusive: 7.94 µM [inhibitor, partial curve]
29 | CCCCN(CC)CCCNC(=O)c1ccc(CS(=O)(=O)c2c(Cl)cccc2Cl)o1 |  | inconclusive: 7.08 µM [inhibitor, partial curve, poor fit]
30 | CCn1c(SCc2cccc(F)c2)nc2c(c1=O)SCC2 | inactive: -23% [at 46.1 µM] | 
31 | CC(NS(=O)(=O)c1ccccc1)C1CC2CCC1C2 (centres undefined) |  | inconclusive: 7.94 µM [inhibitor, partial curve]
32 | S=c1[nH]nc(-c2cccnc2)n1/N=C/c1ccc(Br)s1 |  | inconclusive: 1.26 µM [inhibitor, single point]
33 | Cn1c(SCc2ccccc2F)nc2cccnc21 |  | inconclusive: 2.31 µM [activator, partial curve, poor fit]
34 | COc1ccc(C(=O)C2CCCN(S(=O)(=O)c3cccc(C)c3)C2)c(C)c1 (centres undefined) |  | inconclusive: 10 µM [inhibitor, partial curve, poor fit]
35 | COCC1CCCCN1C(=O)c1ccc(OC2CCN(Cc3ccccn3)CC2)cc1 (centres undefined) |  | inconclusive: 35.5 µM [activator, single point]
36 | COc1ccc(C(c2nnnn2Cc2ccc(F)cc2)N2CCN(c3ccc(OC)cc3)CC2)cc1 (centres undefined) |  | inconclusive: 25.1 µM [inhibitor, single point]
37 | CN(C)S(=O)(=O)c1cccc(-c2cn3cc(Cl)ccc3n2)c1 |  | inconclusive: 32.6 µM [inhibitor, single point]
38 | O=C1c2ccccc2C2=Nc3ccccc3SC(c3ccccc3F)C12 (centres undefined) |  | inconclusive: 23.1 µM [inhibitor, single point]
39 | CCOC(=O)CN1C(=O)c2ccccc2C1=O | inactive: 4.77% | 
40 | Cc1ccc(NC(=O)CS(=O)CC(=O)NCC2OCCc3ccccc32)c(C)c1 (centres undefined) |  | inconclusive: 6.51 µM [activator, single point]
41 | COc1ccc(OC)c(NC(=O)c2cc(=O)c3c(C)cc(C)cc3o2)c1 |  | inconclusive: 6.31 µM [inhibitor, single point]
42 | O=C(/C=C/c1cccc([N+](=O)[O-])c1)c1cccs1 |  | inconclusive: 7.08 µM [inhibitor, partial curve, poor fit]
43 | c1ccc2c(c1)Nc1ccncc1S2 | inactive: 20.4% | 
44 | Cc1cc(NC(=O)CSc2nnc(NC(=O)C3CC(=O)N(c4ccccc4C)C3)s2)no1 (centres undefined) |  | inconclusive: 0.316 µM [inhibitor, partial curve, poor fit]
